Assay: general procedure: Fmoc solid-phase peptide synthesis; Rink amide-resin (500 mg, loading capacity = 0.33 mmol/g); HCTU/DIPEA
Details: whole synthesis, hydrocarbon staple

## VS5RFKS5FFRKLKKLV-NH2
Analytical RP-HPLC, Vydac C18, scale of the general procedure 500 mg resin
  final HPLC purity: over 95% purity
total, scale of the general procedure 500 mg resin
  isolated yield: 65% total yield

From PMC9021566 (Frontiers in Chemistry, 2022)
